The structures appear in SMILES notation. The list does not hold the whole screen: its compounds were picked by chemical class. Not every dose and run of a compound is shown. T/C: endpoint of the treated group in % of that of the vehicle group. Where survival is the endpoint, the PubChem record calls one and a half times the control and up active, and a quarter to a half above the control has no call in these data; cut-offs in other NCI protocols can differ. Some entries show no survivor count and are marked so; the dose need not have been tolerated. Schedule codes are those of the source, taken here to give the interval after Q, in days (D) or hours (H), and the number of doses after X. Some entries were tested several times; the values are given in rising order.

This assay deals with L1210 leukemia ip in BDF1 mice, survival T/C. The assay is described as follows: NCI In Vivo Anticancer Drug Screen. Data for tumor model L1210 Leukemia (intraperitoneal) in B6D2F1 (BDF1) mice. The conditions noted are these: T/C endpoint: mean survival time, higher T/C = longer survival.
The mark [1] stands for this setting: dose: 10.0 mg/kg/injection, schedule: Q01DX001 (ip), vehicle: saline.
[2] abbreviates: dose: 15.0 mg/kg/injection, schedule: Q01DX001 (ip), vehicle: saline.

Consider `O=Nc1ccc(N(CCCl)CCCl)cc1`, for which the T/C by setting is: (dose: 0.7 mg/kg/injection, schedule: Q01DX001 (ip), vehicle: other) 98 % of control [survivor count not shown]; (dose: 1.0 mg/kg/injection, schedule: Q01DX001 (ip), vehicle: other) 106 % of control [survivor count not shown]; (dose: 1.0 mg/kg/injection, schedule: Q01DX009 (ip), vehicle: other) 97 % of control [survivor count not shown]; (dose: 1.5 mg/kg/injection, schedule: Q01DX001 (ip), vehicle: other) 98 % of control [survivor count not shown]; (dose: 1.5 mg/kg/injection, schedule: Q01DX009 (ip), vehicle: other) 103 % of control [survivor count not shown]; (dose: 2.2 mg/kg/injection, schedule: Q01DX001 (ip), vehicle: other) 108 % of control [survivor count not shown]. For the same molecule, the T/C was 103 % of control [survivor count not shown] (dose: 2.2 mg/kg/injection, schedule: Q01DX009 (ip), vehicle: other); 111 % of control [survivor count not shown] (dose: 2.5 mg/kg/injection, schedule: Q01DX001 (ip), vehicle: saline); 116 [survivor count not shown] and 126 % of control [survivor count not shown] (dose: 3.3 mg/kg/injection, schedule: Q01DX009 (ip), vehicle: other); 138 % of control [survivor count not shown] (dose: 5.0 mg/kg/injection, schedule: Q01DX001 (ip), vehicle: saline); 135 % of control [survivor count not shown] (dose: 5.0 mg/kg/injection, schedule: Q01DX009 (ip), vehicle: other); 126 % of control [survivor count not shown] (dose: 7.5 mg/kg/injection, schedule: Q01DX009 (ip), vehicle: other). For the same molecule, the T/C is 130 % of control [survivor count not shown] under setting [1]; 134 % of control [survivor count not shown] (dose: 11.25 mg/kg/injection, schedule: Q01DX009 (ip), vehicle: other); 113 % of control [survivor count not shown] under setting [2].
In the case of `CC1CCC(N(CCCl)CCCl)CC1` (centres undefined), the T/C by setting is: (dose: 1.3 mg/kg/injection, schedule: Q01DX001 (ip), vehicle: saline) 106 % of control [survivor count not shown]; (dose: 2.0 mg/kg/injection, schedule: Q01DX001 (ip), vehicle: saline) 110 % of control [survivor count not shown]; (dose: 3.0 mg/kg/injection, schedule: Q01DX001 (ip), vehicle: saline) 115 % of control [survivor count not shown]; (dose: 4.4 mg/kg/injection, schedule: Q01DX001 (ip), vehicle: saline) 120 % of control [survivor count not shown]; (dose: 6.7 mg/kg/injection, schedule: Q01DX001 (ip), vehicle: saline) 122 % of control [survivor count not shown]; under setting [1], 121 % of control [survivor count not shown]. Also, the T/C under setting [2] was 106 % of control [survivor count not shown].
`ClCCN1CCN(CCCl)CC1`: the T/C was 105 % of control [survivor count not shown] (dose: 0.25 mg/kg/injection, schedule: Q01DX009 (ip), vehicle: saline); 110 % of control [survivor count not shown] (dose: 0.25 mg/kg/injection, schedule: Q04DX003 (ip), vehicle: saline); 95 % of control [survivor count not shown] (dose: 0.5 mg/kg/injection, schedule: Q01DX009 (ip), vehicle: saline); 103 [survivor count not shown], 115 [survivor count not shown], 116 % of control [survivor count not shown] (dose: 0.5 mg/kg/injection, schedule: Q04DX003 (ip), vehicle: saline); 127 [survivor count not shown], 130 [survivor count not shown], 137 % of control [survivor count not shown] (dose: 1.0 mg/kg/injection, schedule: Q04DX003 (ip), vehicle: saline); 102 % of control [survivor count not shown] (dose: 2.0 mg/kg/injection, schedule: Q01DX009 (ip), vehicle: saline). Further, the T/C (dose: 2.0 mg/kg/injection, schedule: Q04DX003 (ip), vehicle: saline) was 127 [survivor count not shown] and 130 % of control [survivor count not shown]; the T/C (dose: 4.0 mg/kg/injection, schedule: Q04DX003 (ip), vehicle: saline) is 103 % of control [survivor count not shown].
For the molecule `NN(CCCl)CCCl`, the T/C by setting is: (dose: 0.75 mg/kg/injection, schedule: Q01DX009 (ip), vehicle: saline) 106 % of control [survivor count not shown]; (dose: 1.5 mg/kg/injection, schedule: Q01DX009 (ip), vehicle: saline) 106 % of control [survivor count not shown]; (dose: 2.5 mg/kg/injection, schedule: Q01DX009 (ip), vehicle: saline) 126 % of control [survivor count not shown]; (dose: 3.0 mg/kg/injection, schedule: Q01DX009 (ip), vehicle: saline) 102 % of control [survivor count not shown]; (dose: 3.8 mg/kg/injection, schedule: Q01DX009 (ip), vehicle: saline) 134 % of control [survivor count not shown]; (dose: 5.8 mg/kg/injection, schedule: Q01DX009 (ip), vehicle: saline) 131 [survivor count not shown] and 158 % of control [survivor count not shown]. The T/C runs as follows: (dose: 5.91 mg/kg/injection, schedule: Q01DX009 (ip), vehicle: saline) 140 % of control [survivor count not shown]; (dose: 6.0 mg/kg/injection, schedule: Q01DX009 (ip), vehicle: saline) 130 % of control [survivor count not shown]; (dose: 8.8 mg/kg/injection, schedule: Q01DX009 (ip), vehicle: saline) 156 % of control [survivor count not shown]; under setting [1], 117 % of control [survivor count not shown]; (dose: 10.13 mg/kg/injection, schedule: Q01DX009 (ip), vehicle: saline) 141 % of control [survivor count not shown]; (dose: 13.3 mg/kg/injection, schedule: Q01DX009 (ip), vehicle: saline) 129 % of control [survivor count not shown]. Also, the T/C by setting is: (dose: 16.6 mg/kg/injection, schedule: Q01DX001 (ip), vehicle: saline) 139 [survivor count not shown] and 144 % of control [survivor count not shown]; (dose: 16.65 mg/kg/injection, schedule: Q01DX001 (ip), vehicle: saline) 141 % of control [survivor count not shown]; (dose: 16.88 mg/kg/injection, schedule: Q01DX009 (ip), vehicle: saline) 100 % of control [survivor count not shown]; (dose: 18.75 mg/kg/injection, schedule: Q01DX001 (ip), vehicle: saline) 152 % of control [survivor count not shown]; (dose: 25.0 mg/kg/injection, schedule: Q01DX001 (ip), vehicle: saline) 138 [survivor count not shown] and 152 % of control [survivor count not shown]; (dose: 37.5 mg/kg/injection, schedule: Q01DX001 (ip), vehicle: saline) 106 [survivor count not shown], 111 [survivor count not shown], 155 % of control [survivor count not shown]. The T/C (dose: 56.25 mg/kg/injection, schedule: Q01DX001 (ip), vehicle: saline) is 143 % of control [survivor count not shown].

The record behind these values is PubChem BioAssay AID248 (DTP/NCI, 2004).
